± gives the standard deviation. Only a part is listed here, and it is no random draw. Many entries were measured with a wide error. This is one part of the list.
Tests used:
[1] = tested on: MILI (PIWIL2) piRISC loaded with L1MC piRNA (26 nt); assay: pre-steady-state target cleavage rate (min^-1); higher = faster piRNA-guided slicing of the target; settings: guide: L1MC piRNA 5'p-UAACUAAAUACUAUGCAAGCUGUAGG
In short: (§1)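 The pre-steady-state cleavage rate was calculated from a burst-and-steady-state fit. Data came from Cleave-'n-Seq, in which […] transcribed, DNA-blocked target RNA library was mixed with 1 nM active affinity-purified piRISC carrying one synthetic guide, with or without 500 nM GTSF1 partner protein, in HEPES–potassium acetate buffer at 33 °C for 0–8 or 0–960 min. Uncleaved targets were sequenced and normalised to depth and to weakly complementary targets, three trials were pooled, and k3 was capped at 0.0001 min^-1.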

[2] = tested on: MIWI (PIWIL1) piRISC loaded with L1MC piRNA (30 nt); assay: as above; settings: guide: L1MC piRNA 5'p-UAACUAAAUACUAUGCAAGCUGUAGGUCCU
In short: as §1

[3] = tested on: EfPiwi piRISC loaded with L1MC piRNA (26 nt); assay: pre-steady-state target cleavage rate (min^-1); guide: L1MC piRNA 5'p-UAACUAAAUACUAUGCAAGCUGUAGG; MIWI and MILI are mouse PIWI proteins and EfPiwi is from a freshwater sponge; tags in brackets are library labels; higher = faster piRNA-guided slicing of the target
In short: as §1

[4] = auxiliary factor: none (no GTSF1)
[5] = auxiliary factor: 500 nM Ephydatia muelleri Gtsf1
[6] = auxiliary factor: 500 nM mouse GTSF1
[7] = auxiliary factor: none (no Gtsf1)

Sequence	pre-steady-state target cleavage rate [1, 4]	pre-steady-state target cleavage rate [2, 4]	pre-steady-state target cleavage rate [3, 5]	pre-steady-state target cleavage rate [1, 6]	pre-steady-state target cleavage rate [2, 6]	pre-steady-state target cleavage rate [3, 7]
UCCUGGAUGAGGAUGCAUAGUAUUUAGAAA	0.00166 ± 0.0032	0.0013 ± 0.006	0.0024 ± 0.0024			
UCCUGGAUGAGCUUGCAUAGAUAUUAGUAA	0.000828 ± 0.0089	0.000961 ± 0.0091	0.000203 ± 0.025			
UCCUGGAUGUGCAUCCAUAGUAUUUAGUUA	0.000786 ± 0.014	0.000314 ± 0.028	0.00128 ± 0.0073			
UCCUGGAUCAGCUUGCAUACAAUUUUCAAA	0.000161 ± 0.017	0.000255 ± 0.013	0.00029 ± 0.014			
UCCUGGAUGUCGUUGCAUAGUUUUAAGUUA			0.000325 ± 0.013	0.00331 ± 0.0048	0.000342 ± 0.028	
UCCUGGAUCUCGUUGCAUAGUAUUUAGAAA	0.00189 ± 0.0033	0.00205 ± 0.0035	0.00227 ± 0.0036			
UCCUGGAUGUCCUUGCAUACAAUUUAGUAA	0.000778 ± 0.0067	0.000788 ± 0.0089	0.00108 ± 0.0057			
UCCUGGAUGUCGAACCAUGUAUUUAGUUA	0.000178 ± 0.016	0.000417 ± 0.012	0.00037 ± 0.013			
UCCUGGAUGUCGAUGCAAAGUUUUUAGUUA	0.000997 ± 0.0058	0.000527 ± 0.014	0.000296 ± 0.015			
UCCUGGAUCUGCUUGCAUAGUAUUUUCAAA	0.00109 ± 0.0045	0.00176 ± 0.0027	0.00116 ± 0.0056			
UCCUGGAUGUCGAAGCAAAGUAUUUUGUUA	0.000333 ± 0.014	0.000532 ± 0.014				0.000123 ± 0.067
UCCUGGAUGUCGAUCCAUAGUAUUUAGUUA	0.00062 ± 0.0082	0.000314 ± 0.015	0.00078 ± 0.0081			
UCCUGGUACAGCUUGCAUAGUAUUAACAAA	0.00206 ± 0.0033	0.00203 ± 0.003	0.00261 ± 0.0023			
UCCUGCUACAGCUUGCAUAGAUAUUACAAA	0.000604 ± 0.0076	0.000239 ± 0.017	0.000517 ± 0.0083			
UCCUGGUACAGCAACCAUAGUAUUUUCAAA	0.000883 ± 0.0059	0.000626 ± 0.011	0.000386 ± 0.0071			
UCCUGGUACACGAUGCAUAGUAUUUAGAAA	0.00308 ± 0.0037	0.0026 ± 0.004	0.00253 ± 0.0029			
UCCUGGAUCAGCUUGCAUAGAUAUUUCAAA	0.000548 ± 0.0077	0.000217 ± 0.012	0.000335 ± 0.0091			
UCCUGCUACAGCAUGCAUAGUAUUUUCAAA	0.00127 ± 0.0065	0.000881 ± 0.0093	0.00206 ± 0.0025			
UCCUGCUACAGCUUGCAUUCUAUUUAGAAA	0.000613 ± 0.0077	0.00101 ± 0.0071	0.000506 ± 0.0062			
UCCUGGAUGUGCUUCCAUAGUAUUAAGUUA	0.000804 ± 0.0074	0.000916 ± 0.007	0.000366 ± 0.0087			
UCCUGGUACAGCUUGCACUAGUAUUUAGUUA	0.00202 ± 0.0043	0.00141 ± 0.0057	0.00323 ± 0.0029			
UCCUGGAUGUCGAUGCAUAGUAUUUAGAUA	0.00124 ± 0.0049	0.00105 ± 0.0049	0.00301 ± 0.0033			
UCCUCCUACAGCUUGCAUUCAUAAAUCAAA [g13:g26:cont:t1A]	0.000105 ± 0.029	0.000222 ± 0.013	0.00126 ± 0.0055			
UCCUGGAUGAGCUUCGAUAGUAUUUACAAA	0.000358 ± 0.017	0.000309 ± 0.012	0.000413 ± 0.01			
UCCUCCUACAGCUUGCAUAGUAUAAUCAAA	0.00114 ± 0.005	0.000571 ± 0.008	0.00234 ± 0.0031			

Reformatted: entries from further up.
Sequence,"pre-steady-state target cleavage rate [1, 4]","pre-steady-state target cleavage rate [2, 4]","pre-steady-state target cleavage rate [3, 5]","pre-steady-state target cleavage rate [1, 6]","pre-steady-state target cleavage rate [2, 6]","pre-steady-state target cleavage rate [3, 7]"
UCCUGGUACAGCUUGCAUAGUAUUAACAAA,0.00206 ± 0.0033,0.00203 ± 0.003,0.00261 ± 0.0023,,,
UCCUGCUACAGCUUGCAUAGAUAUUACAAA,0.000604 ± 0.0076,0.000239 ± 0.017,0.000517 ± 0.0083,,,
UCCUGGUACAGCAACCAUAGUAUUUUCAAA,0.000883 ± 0.0059,0.000626 ± 0.011,0.000386 ± 0.0071,,,
UCCUGGUACACGAUGCAUAGUAUUUAGAAA,0.00308 ± 0.0037,0.0026 ± 0.004,0.00253 ± 0.0029,,,
UCCUGGAUCAGCUUGCAUAGAUAUUUCAAA,0.000548 ± 0.0077,0.000217 ± 0.012,0.000335 ± 0.0091,,,
UCCUGCUACAGCAUGCAUAGUAUUUUCAAA,0.00127 ± 0.0065,0.000881 ± 0.0093,0.00206 ± 0.0025,,,
UCCUGCUACAGCUUGCAUUCUAUUUAGAAA,0.000613 ± 0.0077,0.00101 ± 0.0071,0.000506 ± 0.0062,,,
UCCUGGAUGUGCUUCCAUAGUAUUAAGUUA,0.000804 ± 0.0074,0.000916 ± 0.007,0.000366 ± 0.0087,,,
UCCUGGUACAGCUUGCACUAGUAUUUAGUUA,0.00202 ± 0.0043,0.00141 ± 0.0057,0.00323 ± 0.0029,,,
UCCUGGAUGUCGAUGCAUAGUAUUUAGAUA,0.00124 ± 0.0049,0.00105 ± 0.0049,0.00301 ± 0.0033,,,
UCCUCCUACAGCUUGCAUUCAUAAAUCAAA [g13:g26:cont:t1A],0.000105 ± 0.029,0.000222 ± 0.013,0.00126 ± 0.0055,,,
UCCUGGAUGAGCUUCGAUAGUAUUUACAAA,0.000358 ± 0.017,0.000309 ± 0.012,0.000413 ± 0.01,,,
UCCUCCUACAGCUUGCAUAGUAUAAUCAAA,0.00114 ± 0.005,0.000571 ± 0.008,0.00234 ± 0.0031,,,

Continued:

Sequence	pre-steady-state target cleavage rate [1, 4]	pre-steady-state target cleavage rate [2, 4]	pre-steady-state target cleavage rate [3, 5]	pre-steady-state target cleavage rate [1, 6]	pre-steady-state target cleavage rate [2, 6]	pre-steady-state target cleavage rate [3, 7]
UCCUGGAUGUCGAAGCAUAGUAAUUAGAUA	0.000202 ± 0.023	0.00018 ± 0.015	0.00126 ± 0.0069			
UCCUCCUACACGAUGCAUAGUAUUUUCAAA	0.00116 ± 0.0056	0.000662 ± 0.011	0.0015 ± 0.0045			
UCCUGGAUGUCGUUCCAUUGUAUUUAGUUA	0.000308 ± 0.018		0.000397 ± 0.01		0.00124 ± 0.0069	
UCCUGGAUGUCCUUGCAUACAUUUUAGUAA	0.000803 ± 0.0087	0.000477 ± 0.014	0.000215 ± 0.012			
UCCUGGAUGAGCAACCAUAGUAUUUAGUAA	0.00093 ± 0.0067	0.000554 ± 0.011				0.000635 ± 0.013
UCCUCCUAGUCCUUGCAUAGUAUUUAGAAA	0.00101 ± 0.0048	0.00186 ± 0.0026	0.00217 ± 0.0013			
UCCUGCUACACGAUGCAUAGUAUUUAGAAA	0.00113 ± 0.0057	0.00126 ± 0.0069	0.00244 ± 0.0025			
UCCUGGUACAGCAUGCAUAGUAUUUUCAAA	0.000943 ± 0.0089	0.000373 ± 0.011	0.000943 ± 0.0045			
UCCUGGAUGUCGAACCAUUGUAAUUAGUUA		0.000255 ± 0.015	0.000332 ± 0.016	0.000181 ± 0.044		
UCCUGGUACAGCUUGCAUUCUAUUUAGAAA	0.00155 ± 0.0073	0.000332 ± 0.0089	0.000329 ± 0.015			
UCCUGCUACAGGUUCCAUAGUAUUUAGUUA	0.00209 ± 0.0035	0.00132 ± 0.005	0.00222 ± 0.0021			
UCCUGGAUGUCGAUGCAUAGUAUAAUCAAA [g8:g17:cont:t1A]	0.000578 ± 0.0079	0.000416 ± 0.018				0.000175 ± 0.031
UCCUGGAUGUCGAACGUAAGUAUUUCAGUUA	0.000271 ± 0.016	0.000249 ± 0.023	< 0.0001			
UCCUGGAUGUCGAAGCAUAGUAUUUAGUCUA	0.0007 ± 0.0081	0.000481 ± 0.011	0.000299 ± 0.012			
UCCUGGAACAGCUUGCAUUCUAUUUAGUAA	0.000812 ± 0.0083	0.00208 ± 0.003	0.000439 ± 0.0073			
UCCUCCUACAGCUUGCAUCAGUAUUUAGUUA	0.00123 ± 0.0046	0.000884 ± 0.0082	0.00234 ± 0.0029			
UCCUGGAUGUCCUUGCAUAGAAUUAAGUUA	0.00142 ± 0.0057	0.00101 ± 0.0093	0.0014 ± 0.005			
UCCUGGAACAGCUUGCAUAGUAAAUUCAAA	0.000708 ± 0.0073	0.000949 ± 0.0056	0.00113 ± 0.0039			
UCCUGGAUGUCCUUGCAUAGAAAUUAGUUA	0.00159 ± 0.0029	0.0014 ± 0.0041	0.0002 ± 0.019			
UCCUGGAUCAGCUUCGUUAGUAUUUAGAAA	0.000245 ± 0.023	0.000746 ± 0.0062	0.00104 ± 0.0077			
UCCUGGAACAGCUUGCAUUAGUAUUUAGUUA	0.00137 ± 0.0043	0.00234 ± 0.0036	0.000539 ± 0.012			
UCCUGGAUGUCGAUGCAUAGUAUUUAGGUA	0.00125 ± 0.0046	0.00111 ± 0.0062	0.000503 ± 0.0091			
UCCUGGAUGUGCUUCCAAAGUAUUUAGUUA	0.00206 ± 0.0031	0.000848 ± 0.0061	0.00463 ± 0.0046			
UCCUCCUACAGCAUGCAUAGUAUUUAGAAA	0.00191 ± 0.0029	0.002 ± 0.0023	0.00473 ± 0.002			
UCCUCCUACAGCAAGCAUAGUAUUUACAAA	0.00122 ± 0.0045	0.00117 ± 0.006	0.00211 ± 0.0045			

— the supplement of paper PMC10338343
